Test results: article PMC8744235 (Journal of Biomedical Science, 2022)

Assays:
[1] = test system: [^3H]VPA uptake in MT (hSOD1^G93A) NSC-34 cell line; conditions: 1 mM
[2] = test system: [^3H]VPA uptake in WT (hSOD1^WT) NSC-34 cell line; experiment: Inhibition of [3H]VPA uptake by substrates/inhibitors/drugs, WT cell line; type: cell-based; conditions: 1 mM

## NS(=O)(=O)c1cc(C(=O)O)c(NCc2ccco2)cc1Cl [Furosemide, furosemide]
[1]
  depletion in VPA transport: approximately 40%
[2]
  depletion in VPA transport: approximately 40%
